Laboratory results published in publication PMC6262856.
Results are given in words; binding and its absence hold for the method and conditions named. In cells and extracts the contact can be indirect. Some binding calls cover weakened binding; strength is not graded here. For some assays here: Tags and fused reporters may be left off the sequences shown. Values belong to the binder of their own block, whether it stands above or below them.

Sequences of proteins named here, by UniProt entry; tags and fusion partners are left off.
UniProt P60842: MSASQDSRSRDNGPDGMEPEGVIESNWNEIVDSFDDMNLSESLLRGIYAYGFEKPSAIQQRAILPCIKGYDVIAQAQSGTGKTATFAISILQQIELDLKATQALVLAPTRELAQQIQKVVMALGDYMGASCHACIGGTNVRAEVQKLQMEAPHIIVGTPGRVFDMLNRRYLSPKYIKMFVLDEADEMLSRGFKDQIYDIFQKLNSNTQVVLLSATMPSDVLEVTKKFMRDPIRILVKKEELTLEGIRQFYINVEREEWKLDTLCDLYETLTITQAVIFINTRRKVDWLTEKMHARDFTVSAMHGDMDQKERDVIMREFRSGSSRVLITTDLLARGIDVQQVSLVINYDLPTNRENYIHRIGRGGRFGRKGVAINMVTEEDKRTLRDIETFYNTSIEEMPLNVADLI

Columns and labels:
[1] = target: FLAG-eIF4A1 (human), P60842; test: co-IP; 293T cells lysed in NP-40 lysis buffer; pre-cleared lysates treated with EtOH or 15d-PGJ2 at 30°C for 1 h; anti-FLAG antibody on protein G agarose, 4°C 1 h; western blot of the precipitate; details: remark: other sources report otherwise
[2] = target: FLAG-eIF4A1 (human) (UniProt P60842); test: as above

- binding [1]: binds
B1: GFP-PAIP1, Q9H074 1-479 (protein)
chain: MSDGFDRAPGAGRGRSRGLGRGGGGPEGGGFPNGAGPAERARHQPPQPKAPGFLQPPPLRQPRTTPPPGAQCEVPASPQRPSRPGALPEQTRPLRAPPSSQDKIPQQNSESAMAKPQVVVAPVLMSKLSVNAPEFYPSGYSSSYTESYEDGCEDYPTLSEYVQDFLNHLTEQPGSFETEIEQFAETLNGCVTTDDALQELVELIYQQATSIPNFSYMGARLCNYLSHHLTISPQSGNFRQLLLQRCRTEYEVKDQAAKGDEVTRKRFHAFVLFLGELYLNLEIKGTNGQVTRADILQVGLRELLNALFSNPMDDNLICAVKLLKLTGSVLEDAWKEKGKMDMEEIIQRIENVVLDANCSRDVKQMLLKLVELRSSNWGRVHATSTYREATPENDPNYFMNEPTFYTSDGVPFTAADPDYQEKYQELLEREDFFPDYEENGTDLSGAGDPYLDDIDDEMDPEIEEAYEKFCLESERKRKQ

- binding [2]: binds
B2: DAP5 (protein, UniProt P78344 1-907)
chain: MESAIAEGGASRFSASSGGGGSRGAPQHYPKTAGNSEFLGKTPGQNAQKWIPARSTRRDDNSAANNSANEKERHDAIFRKVRGILNKLTPEKFDKLCLELLNVGVESKLILKGVILLIVDKALEEPKYSSLYAQLCLRLAEDAPNFDGPAAEGQPGQKQSTTFRRLLISKLQDEFENRTRNVDVYDKRENPLLPEEEEQRAIAKIKMLGNIKFIGELGKLDLIHESILHKCIKTLLEKKKRVQLKDMGEDLECLCQIMRTVGPRLDHERAKSLMDQYFARMCSLMLSKELPARIRFLLQDTVELREHHWVPRKAFLDNGPKTINQIRQDAVKDLGVFIPAPMAQGMRSDFFLEGPFMPPRMKMDRDPLGGLADMFGQMPGSGIGTGPGVIQDRFSPTMGRHRSNQLFNGHGGHIMPPTQSQFGEMGGKFMKSQGLSQLYHNQSQGLLSQLQGQSKDMPPRFSKKGQLNADEISLRPAQSFLMNKNQVPKLQPQITMIPPSAQPPRTQTPPLGQTPQLGLKTNPPLIQEKPAKTSKKPPPSKEELLKLTETVVTEYLNSGNANEAVNGVREMRAPKHFLPEMLSKVIILSLDRSDEDKEKASSLISLLKQEGIATSDNFMQAFLNVLDQCPKLEVDIPLVKSYLAQFAARAIISELVSISELAQPLESGTHFPLFLLCLQQLAKLQDREWLTELFQQSKVNMQKMLPEIDQNKDRMLEILEGKGLSFLFPLLKLEKELLKQIKLDPSPQTIYKWIKDNISPKLHVDKGFVNILMTSFLQYISSEVNPPSDETDSSSAPSKEQLEQEKQLLLSFKPVMQKFLHDHVDLQVSALYALQVHCYNSNFPKGMLLRFFVHFYDMEIIEEEAFLAWKEDITQEFPGKGKALFQVNQWLTWLETAEEEESEEEAD
